The values below come from article PMC5607100.

Protein sequences, listed by entry. Tags and fused reporters are not part of them.
UniProt P05030: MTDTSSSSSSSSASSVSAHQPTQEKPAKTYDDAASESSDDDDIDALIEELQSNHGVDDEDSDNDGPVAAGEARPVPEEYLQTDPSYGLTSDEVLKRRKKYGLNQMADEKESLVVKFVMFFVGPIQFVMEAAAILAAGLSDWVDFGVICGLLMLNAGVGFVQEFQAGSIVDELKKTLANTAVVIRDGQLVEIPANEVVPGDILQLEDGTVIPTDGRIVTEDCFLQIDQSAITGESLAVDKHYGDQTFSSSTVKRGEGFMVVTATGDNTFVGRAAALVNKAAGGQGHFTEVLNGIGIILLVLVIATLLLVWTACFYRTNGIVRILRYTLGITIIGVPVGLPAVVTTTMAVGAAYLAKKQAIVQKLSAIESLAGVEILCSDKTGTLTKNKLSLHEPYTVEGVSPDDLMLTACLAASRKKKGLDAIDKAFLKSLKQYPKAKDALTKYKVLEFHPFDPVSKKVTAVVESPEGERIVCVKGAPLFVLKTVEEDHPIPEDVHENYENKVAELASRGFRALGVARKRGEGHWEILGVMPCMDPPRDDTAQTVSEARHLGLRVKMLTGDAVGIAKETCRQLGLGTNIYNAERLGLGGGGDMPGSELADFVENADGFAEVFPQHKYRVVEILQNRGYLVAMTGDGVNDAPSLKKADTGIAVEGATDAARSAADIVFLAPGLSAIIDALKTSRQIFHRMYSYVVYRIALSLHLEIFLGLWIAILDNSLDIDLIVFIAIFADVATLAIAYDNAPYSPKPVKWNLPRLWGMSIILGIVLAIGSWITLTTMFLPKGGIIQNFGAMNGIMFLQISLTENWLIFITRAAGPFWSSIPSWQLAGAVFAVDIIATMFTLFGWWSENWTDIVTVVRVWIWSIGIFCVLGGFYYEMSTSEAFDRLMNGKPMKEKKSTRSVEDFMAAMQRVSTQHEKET
UniProt P53173: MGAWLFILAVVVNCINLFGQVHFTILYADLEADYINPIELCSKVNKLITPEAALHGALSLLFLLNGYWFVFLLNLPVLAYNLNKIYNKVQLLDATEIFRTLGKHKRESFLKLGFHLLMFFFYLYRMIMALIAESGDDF

These are yes or no findings as the source states them, for the method shown. In cells and extracts the contact can be indirect. These calls come from enrichment with a bait or labelling near it, and not all partners need be listed. Where a sequence is shown, tags or fusion partners need not be part of it.

To fix the notation:
B1: Snd3 (protein, UniProt P38264 1-188)
chain: MNPQVSNIIIMLVMMQLSRRIDMEDPTIIMYIRILYCSSIGISWIIYQMARKRIVAKNDMTTMKYVEPGNAMSGEGEKLQVTTVRDYDLKEIDSAIKSIYTGMAMMGFMHLYLKYTNPLFMQSISPVKSALEHNEVKIHLFGKPATGDLKRPFKAPSLFGGMGQTGPKTDKKSIEEAERAGNAGVKAE
B2: Sss1 (protein, UniProt P35179 1-80)
chain: MARASEKGEEKKQSNNQVEKLVEAPVEFVREGTQFLAKCKKPDLKEYTKIVKAVGIGFIAVGIIGYAIKLIHIPIRYVIV
B3: Sec63 (protein, UniProt P14906 1-663)
chain: MPTNYEYDEASETWPSFILTGLLMVVGPMTLLQIYQIFFGANAEDGNSGKSKEFNEEVFKNLNEEYTSDEIKQFRRKFDKNSNKKSKIWSRRNIIIIVGWILVAILLQRINSNDAIKDAATKLFDPYEILGISTSASDRDIKSAYRKLSVKFHPDKLAKGLTPDEKSVMEETYVQITKAYESLTDELVRQNYLKYGHPDGPQSTSHGIALPRFLVDGSASPLLVVCYVALLGLILPYFVSRWWARTQSYTKKGIHNVTASNFVSNLVNYKPSEIVTTDLILHWLSFAHEFKQFFPDLQPTDFEKLLQDHINRRDSGKLNNAKFRIVAKCHSLLHGLLDIACGFRNLDIALGAINTFKCIVQAVPLTPNCQILQLPNVDKEHFITKTGDIHTLGKLFTLEDAKIGEVLGIKDQAKLNETLRVASHIPNLKIIKADFLVPGENQVTPSSTPYISLKVLVRSAKQPLIPTSLIPEENLTEPQDFESQRDPFAMMSKQPLVPYSFAPFFPTKRRGSWCCLVSSQKDGKILQTPIIIEKLSYKNLNDDKDFFDKRIKMDLTKHEKFDINDWEIGTIKIPLGQPAPETVGDFFFRVIVKSTDYFTTDLDITMNMKVRDSPAVEQVEVYSEEDDEYSTDDDETESDDESDASDYTDIDTDTEAEDDESPE
B4: Sec28 (protein, UniProt P40509 1-296)
chain: MDYFNIKQNYYTGNFVQCLQEIEKFSKVTDNTLLFYKAKTLLALGQYQSQDPTSKLGKVLDLYVQFLDTKNIEELENLLKDKQNSPYELYLLATAQAILGDLDKSLETCVEGIDNDEAEGTTELLLLAIEVALLNNNVSTASTIFDNYTNAIEDTVSGDNEMILNLAESYIKFATNKETATSNFYYYEELSQTFPTWKTQLGLLNLHLQQRNIAEAQGIVELLLSDYYSVEQKENAVLYKPTFLANQITLALMQGLDTEDLTNQLVKLDHEHAFIKHHQEIDAKFDELVRKYDTSN
B5: Sec72 (protein, UniProt P39742 1-193)
chain: MVTLEYNANSKLITASDAVVALSTETNIDQINVLTTSLIGETNPNFTPQPNEALSKMIKGLFESGMKNLQQKKLNEALKNVSLAIEMAQRKRAPWEAFAIQLPELHFMLRSKIDLCLILGKHLEALQDLDFLLGTGLIQPDVFVRKADCLLKLRQWEEARATCERGLALAPEDMKLRALLIETARNLAEYNGE

In this assay the target is T1, HA‐tagged Ydl121c (Exp1) (S. cerevisiae) (UniProt Q07541).
T1 sequence: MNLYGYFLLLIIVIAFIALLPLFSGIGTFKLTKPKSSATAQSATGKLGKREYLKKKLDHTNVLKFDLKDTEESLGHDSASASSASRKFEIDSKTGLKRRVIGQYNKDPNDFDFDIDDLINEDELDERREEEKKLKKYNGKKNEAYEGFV
The assay can be described thus: affinity purification with mass spectrometry; HA-tagged Exp1 captured on monoclonal anti-HA agarose for 1 hour from cryo-ground yeast solubilised in 1% digitonin, 50 mM Tris/Cl, 150 mM NaCl, pH 7.5; 3 washes; LC-MS/MS; intensities compared with a WT (BY4741) control.
Take “Pma1, plasma membrane H^+‐ATPase (from UniProt P05030 1-918)”: the binding result is reported as “binds”.
With Erv14 (from UniProt P53173 1-138) the entry was “binds”; with B1, “binds”.
As for B2, the entry is “binds”; as for B3, “binds”; as for B4, “binds”.
As for B5, the entry is “binds”.
